Results taken from the supplement of paper PMC10382679.
Single values of this set are uncertain.

B1: Rpb7; numbered along this chain (parent)
chain: MFFIKDLSLNITLHPSFFGPRMKQYLKTKLLEEVEGSCTGKFGYILCVLDYDNIDIQRGRILPTDGSAEFNVKYRAVVFKPFKGEVVDGTVVSCSQHGFEVQVGPMKVFVTKHLMPQDLTFNAGSNPPSYQSSEDVITIKSRIRVKIEGCISQVSSIHAIGSIKEDYLGAI

Key:
[1] = variants of: B1; assay: log2 fold change of mutant abundance, UV-irradiated vs unirradiated; higher = more UV resistant (enriched after UV); details: with Saccharomyces cerevisiae rad7Δ rad26Δ; UV dose (J/m2): 10; genetic background: rad7Δ rad26Δ rpb7Δ + plasmid RPB7 library; outgrowth: 10 cell divisions
Protocol: (§1)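 Error-prone PCR random mutant library of yeast RPB7 (codons 2-171) on a LEU2 plasmid, shuffled into rad7Δ rad26Δ S. cerevisiae (BJ5465 background) with genomic RPB7 deleted. Cells were irradiated with 10 J/m2 UV (254 nm) or left unirradiated and grown for 10 divisions. Plasmid RPB7 amplicons were Illumina-sequenced and per-codon amino-acid counts were compared UV vs no UV with NOISeq (3 repeats, ARSyNseq batch correction). Positive log2FC means enrichment after UV, i.e. UV resistance / derepressed TCR.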

[2] = variants of: B1; assay: NOISeq theta enrichment statistic, UV-irradiated vs unirradiated (dimensionless); higher = more UV resistant (enriched after UV); details: with Saccharomyces cerevisiae rad7Δ rad26Δ; UV dose (J/m2): 10; genetic background: rad7Δ rad26Δ rpb7Δ + plasmid RPB7 library; outgrowth: 10 cell divisions
Protocol: as §1

| Variant | log2 fold change of mutant abundance [1] | NOISeq theta enrichment statistic [2] |
| --- | --- | --- |
| D50S | 0.107 | 0.0898 |
| D50T | -0.0818 | -0.106 |
| D50V | 0.0505 | 0.117 |
| D50H | 0.403 | 0.472 |
| D50R | -0.405 | -0.169 |
| D50N | 0.15 | 0.339 |
| D50E | 0.0652 | 0.163 |
| D50A | 0.2 | 0.363 |
| D50G | 0.13 | 0.284 |
| D50Y | 0.121 | 0.298 |
| D50F | 0.439 | 0.256 |
| I61S | -0.0862 | -0.0592 |
| I61E | -1.13 | -0.611 |
| I61A | 0.53 | 0.266 |
| I61T | -0.128 | -0.257 |
| I61Y | 0.0641 | 0.0818 |
| I61F | -0.0209 | -0.016 |
| I61R | 0.0697 | 0.0822 |
| I61L | 0.201 | 1.02 |
| I61V | -0.171 | -0.557 |
| I61K | -0.327 | -0.589 |
| I61N | -0.339 | -0.258 |
| I61M | -0.0812 | -0.209 |

| Variant | log2 fold change of mutant abundance [1] | NOISeq theta enrichment statistic [2] |
| --- | --- | --- |
| R60M | -0.298 | -0.2 |
| R60T | 0.182 | 0.195 |
| R60I | 0.0474 | 0.164 |
| R60C | 1.05 | 0.62 |
| R60N | -1 | -0.524 |
| R60V | -0.0622 | -0.0361 |
| R60S | 0.0149 | 0.0641 |
| R60K | 0.0128 | 0.0308 |
| R60L | -0.248 | -0.174 |
| R60G | -0.0899 | -0.344 |
| R60E | 0.231 | 0.235 |
| R60W | -0.377 | -0.267 |
| G59C | 0.429 | 0.312 |
| G59E | -0.5 | -0.933 |
| G59M | -0.0188 | -0.00829 |
| G59V | -0.423 | -1.23 |
| G59W | 0.216 | 0.405 |
| G59A | -0.141 | -0.184 |
| G59L | 0.184 | 0.125 |
| G59S | -0.141 | -0.103 |
| G59R | -0.48 | -1.14 |
| E69C | -0.626 | -0.335 |
| E69G | -0.0859 | -0.348 |

Reprinted at random: 7 records from the list

| Variant | log2 fold change of mutant abundance [1] | NOISeq theta enrichment statistic [2] |
| --- | --- | --- |
| D50V | 0.0505 | 0.117 |
| I61K | -0.327 | -0.589 |
| D50T | -0.0818 | -0.106 |
| R60L | -0.248 | -0.174 |
| R60G | -0.0899 | -0.344 |
| R60C | 1.05 | 0.62 |
| D50A | 0.2 | 0.363 |

More results follow.

| Variant | log2 fold change of mutant abundance [1] | NOISeq theta enrichment statistic [2] |
| --- | --- | --- |
| E69D | -0.0103 | -0.0356 |
| E69M | -0.11 | -0.0749 |
| E69K | 0.0205 | 0.0536 |
| E69A | -0.143 | -0.514 |
| E69N | 0.376 | 0.25 |
| E69H | 0.84 | 0.43 |
| E69L | 0.0647 | 0.0451 |
| Q57Y | -0.0236 | -0.0213 |
| Q57N | 0.16 | 0.186 |
| Q57L | 0.048 | 0.177 |
| Q57K | 0.047 | 0.179 |
| Q57E | -0.0218 | -0.0254 |
| Q57R | 0.0598 | 0.237 |
| Q57T | 0.127 | 0.123 |
| Q57H | -0.0736 | -0.443 |
| Q57S | -0.231 | -0.117 |
| Q57P | 0.0285 | 0.052 |
| Q57I | 0.224 | 0.164 |
| D52I | -0.0142 | -0.016 |
| D52C | 0.149 | 0.109 |
| D52F | 0.299 | 0.241 |
| D52V | 0.064 | 0.293 |
| D52K | -0.247 | -0.123 |

| Variant | log2 fold change of mutant abundance [1] | NOISeq theta enrichment statistic [2] |
| --- | --- | --- |
| D52Y | -0.0231 | -0.0527 |
| D52H | 0.0665 | 0.0681 |
| D52E | 0.00378 | 0.0153 |
| D52N | 0.207 | 0.371 |
| D52S | 0.739 | 0.559 |
| D52G | 0.0493 | 0.164 |
| D52L | -0.0151 | -0.00816 |
| D52A | -0.121 | -0.219 |
| I56K | 0.0861 | 0.0707 |
| I56V | 0.0988 | 0.242 |
| I56D | 0.131 | 0.0773 |
| I56S | 0.106 | 0.133 |
| I56C | -0.326 | -0.233 |
| I56R | -0.549 | -0.34 |
| I56L | 0.0361 | 0.0432 |
| I56F | 0.0624 | 0.251 |
| I56T | 0.0851 | 0.271 |
| I56N | 0.119 | 0.32 |
| I56M | -0.00564 | -0.00855 |
| I56Y | -0.408 | -0.18 |
| G66S | 0.0643 | 0.0337 |
| G66K | -0.675 | -0.327 |
| G66V | -0.0216 | -0.0763 |

| Variant | log2 fold change of mutant abundance [1] | NOISeq theta enrichment statistic [2] |
| --- | --- | --- |
| G66L | -0.227 | -0.166 |
| G66E | -0.255 | -0.525 |
| G66C | 0.0759 | 0.0623 |
| G66W | -0.0702 | -0.173 |
| G66R | -0.19 | -0.392 |
| G66A | 0.0591 | 0.0734 |
| R58C | 0.0232 | 0.0957 |
| R58Y | -0.31 | -0.176 |
| R58P | 0.139 | 0.235 |
| R58H | 0.0848 | 0.425 |
| R58S | 0.052 | 0.102 |
| R58I | 0.219 | 0.119 |
| R58Q | 0.026 | 0.0164 |
| R58G | -0.12 | -0.164 |
| R58L | 0.225 | 0.799 |
| R58F | 0.631 | 0.449 |
| R58V | 0.232 | 0.241 |
| R58T | -0.275 | -0.131 |
| I54R | 0.397 | 0.454 |
| I54V | 0.0324 | 0.0744 |
| I54T | 0.132 | 0.377 |
| I54F | 0.0446 | 0.0357 |
| I54K | 0.223 | 0.563 |
